Measured values published in paper PMC6070490.
No constants are given. Whether binding was seen depends on the method and setting. Some entries that bind do so weakly or less than the wild type.

By UniProt entry, the sequences of proteins in these tests, tags left out. Where a name states a change or a piece, a line headed by the entry shows the natural chain unless it says otherwise. Residues count along the entry.
UniProt P02968: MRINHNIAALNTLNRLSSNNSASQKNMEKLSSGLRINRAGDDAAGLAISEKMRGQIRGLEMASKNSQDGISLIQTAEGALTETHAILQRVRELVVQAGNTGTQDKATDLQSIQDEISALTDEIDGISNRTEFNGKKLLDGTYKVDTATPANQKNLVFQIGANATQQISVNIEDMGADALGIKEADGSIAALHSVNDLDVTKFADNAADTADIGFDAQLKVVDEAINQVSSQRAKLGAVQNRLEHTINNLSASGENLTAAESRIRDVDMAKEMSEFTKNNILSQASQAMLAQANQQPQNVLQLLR
N72-flagellin: residues 1-72 of P02968

Key:
[1] = target: flagellin (full-length, Bacillus subtilis) (B. subtilis) (UniProt P02968); test: SEC-MALS; multi-angle light scattering of the co-purified flagellin/FliS complex; both purified
[2] = target: flagellin (full-length, Bacillus subtilis) (B. subtilis) (UniProt P02968); test: crystal structure; sitting drop, 20 °C; flagellin/FliS at 50 mg/ml; two crystal forms (P2_1 at 1.5 Å, P22_12_1 at 2.1 Å); both purified
[3] = target: flagellin (full-length, Bacillus subtilis) (B. subtilis) (UniProt P02968); test: SEC; co-purified or reconstituted complexes on size exclusion chromatography; peak fractions on Coomassie-stained SDS-PAGE; both purified
[4] = target: flagellin (full-length, Bacillus subtilis) (B. subtilis) (UniProt P02968); test: SAXS; small angle X-ray scattering in solution of FliW, flagellin/FliS and FliS/flagellin/FliW; crystal structures fitted into the shapes; both purified
[5] = target: flagellin (full-length, Bacillus subtilis) (B. subtilis) (UniProt P02968); test: HDX-MS; proteins incubated without or with the binding partner, diluted in D2O-containing SEC buffer, stopped at different times, online pepsin digest; both purified
[6] = target: T1, flagellin/FliS heterodimer (B. subtilis) (UniProt P02968+P39739); test: SEC; co-purified or reconstituted complexes on size exclusion chromatography; peak fractions on Coomassie-stained SDS-PAGE; both purified
[7] = target: N72-flagellin (B. subtilis) (UniProt P02968); test: as above
[8] = target: T1, flagellin/FliS heterodimer (B. subtilis); test: SAXS; small angle X-ray scattering in solution of FliW, flagellin/FliS and FliS/flagellin/FliW; crystal structures fitted into the shapes; both purified

Measured: binding

B1: FliS (Bacillus subtilis) (protein, UniProt P39739 1-133)
chain: MAIQNPYTAYQQNSVNTATPGELTLMLYNGCLKFIRLAAQAIENDDMERKNENLIKAQNIIQELNFTLNRNIELSASMGAMYDYMYRRLVQANIKNDTGMLAEVEGYVTDFRDAWKQAIQSERKDRHGSGGIA
binds: [1] | [2] | [3] | [4]

B2: FliW (Bacillus subtilis) (protein, UniProt P96503 1-143)
chain: MIIHTKYHGQMNIKEEQIILFESGIPGFLEEKQFVILPLSEDSPFVALQSVTSENLAFIVVSPFIFFKNYEFDLDESTAELLDIDNIQDVEVMTILTMAEPFEKSTANLLAPIIVNRKNMMAKQVVLHDSSYTTKHPIGGESC
binds: [5] | [3] | [6] | [7] | [8]
